Source: paper PMC9181899, “Synthesis and Anticancer Properties of New 3-Methylidene-1-sulfonyl-2,3-dihydroquinolin-4(1H)-ones” (Molecules, 2022)
Values joined by “and” are separate entries in the source; they are usually repeats but may differ in a detail not shown here. Identical values can stand only once.

tested on: HUVEC cells; assay: MTT in vitro cytotoxicity assay, HUVEC (normal cells); type: cell-based, human; details: selectivity, normal HUVEC vs HL-60 cells, 48 h
Experimental: The promyelocytic leukemia HL-60 and breast cancer adenocarcinoma MCF-7 cell lines were purchased from the European Collection of Cell Cultures (ECACC). Leukemia cells were cultured in RPMI 1640 plus GlutaMax I medium (Gibco/Life Technologies, Carlsbad, CA, USA). MCF-7 cells were maintained in Minimum Essential Medium Eagle (Sigma Aldrich, St. Louis, MO, USA) and supplemented with 2 mM glutamine and men non-essential amino acid solution (Sigma Aldrich, St. Louis, MO, USA). Both media were supplemented with 10% heat-inactivated fetal bovine serum (Biological Industries, Beit-Haemek, Israel) and antibiotics (100 U/mL penicillin and 100 μg/mL streptomycin) (Sigma-Aldrich, St. Louis, MO, USA). Human umbilical vein endothelial cells (HUVECs) were purchased from the American Type Culture Collection (ATCC). Cells were cultured using EGM-2 Endothelial Medium BulletKit purchased from Lonza (Lonza, Walkersville, MD, USA). Cells were maintained at 37 °C in 5% CO2 atmosphere and grown until 80% confluent.
The tested compounds were dissolved in sterile dimethyl sulfoxide (DMSO) and further diluted with culture medium. The final concentration of DMSO in cell cultures was less than 0.1% v/v. Controls without and with 0.1% DMSO were performed in each experiment. At the used concentration, DMSO had no effect on the observed parameters.
The MTT (3-(4,5-dimethylthiazol-2-yl)-2,5-diphenyltetrazolium bromide) assay, which measures the activity of cellular dehydrogenases, was performed according to the Mosmann method. Exponentially growing cells were seeded into 24-well plates at a density of 8 × 10^4 cells/mL and left to grow for 24 h. After 24 h or 48 h of incubation with various concentrations of the tested compounds (dissolved in DMSO and diluted with complete culture medium), cells were incubated with 0.1 mL of MTT solution (5 mg/mL in phosphate buffered saline) for 1.5 h. The metabolically active cells reduced MTT to blue formazan crystals. The plates were centrifuged, and the supernatant was discarded. DMSO (1 mL) was added to each well to dissolve the crystals, whose absorbance was measured at 560 nm using FlexStation 3 Multi-Mode Microplate Reader (Molecular Devices, LLC, San Jose, CA, USA). The untreated cells were used as control. The IC50 values were calculated from the concentration–response curves. The data were expressed as mean ± SEM of three independent experiments.

Row | Structure (SMILES) | HUVEC/HL-60 IC50 Ratio
1 | C=C1C(=O)c2cc(Cl)ccc2N(S(=O)(=O)c2ccc(C)cc2)C1C(C)C (centres unmarked) [Compound 5n, 6-Chloro-3-methylidene-2-(propan-2-yl)-1-tosyl-2,3-dihydroquinolin-4(1H)-one] | 1.01
2 | N.N.O=C([O-])C1(C(=O)[O-])CCC1.[Pt+2] [Carboplatin, reference compound] | 1.41
3 | C=C1C(=O)c2ccccc2N(S(=O)(=O)c2ccc(Cl)cc2)C1CC (centres unmarked) [Compound 5e, 1-((4-Chlorophenyl)sulfonyl)-2-ethyl-3-methylidene-2,3-dihydroquinolin-4(1H)-one] | 2.03
4 | C=C1C(=O)c2cc(Br)ccc2N(S(=O)(=O)c2ccc(C)cc2)C1C(C)C (centres unmarked) [Compound 5r, 6-Bromo-3-methylidene-2-(propan-2-yl)-1-tosyl-2,3-dihydroquinolin-4(1H)-one] | 2.47
5 | C=C1C(=O)c2cc(Br)ccc2N(S(=O)(=O)c2ccc(C)cc2)C1CC (centres unmarked) [Compound 5q, 6. -Bromo-2-ethyl-3-methylidene-1-tosyl-2,3-dihydroquinolin-4(1H)-one] | 1.64
6 | C=C1C(=O)c2ccccc2N(S(=O)(=O)c2ccccc2)C1CC (centres unmarked) [Compound 5a, 2-Ethyl-3-methylidene-1-(phenylsulfonyl)-2,3-dihydroquinolin-4(1H)-one] | 5 and 5.50
7 | C=C1C(=O)c2cc(OC)c(OC)cc2N(S(=O)(=O)c2ccc(C)cc2)C1C(C)C (centres unmarked) [Compound 5j, 6,7-Dimethoxy-3-methylidene-2-(propan-2-yl)-1-tosyl-2,3-dihydroquinolin-4(1H)-one] | 2.30
8 | C=C1C(=O)c2ccccc2N(S(=O)(=O)c2ccc(Cl)cc2)C1C(C)C (centres unmarked) [Compound 5f, 1-((4-Chlorophenyl)sulfonyl)-3-methylidene-2-(propan-2-yl)-2,3-dihydroquinolin-4(1H)-one] | 4.30
9 | C=C1C(=O)c2ccccc2N(S(=O)(=O)c2ccccc2)C1C(C)C (centres unmarked) [Compound 5b, 3-Methylidene-1-(phenylsulfonyl)-2-(propan-2-yl)-2,3-dihydroquinolin-4(1H)-one] | 2.67
10 | C=C1C(=O)c2cc(OC)c(OC)cc2N(S(=O)(=O)c2ccc(C)cc2)C1CC (centres unmarked) [Compound 5i, 2-Ethyl-6,7-dimethoxy-3-methylidene-1-tosyl-2,3-dihydroquinolin-4(1H)-one] | 1.14

same assay, conditions: selectivity, normal HUVEC vs HL-60 cells, 48 h; listed as 2-Ethyl-3-methylidene-1-phenylsulfonyl-2,3-dihydroquinolin-4(1H)-one

Row | Structure (SMILES) | HUVEC/HL-60 IC50 Ratio
11 | C=C1C(=O)c2ccccc2N(S(=O)(=O)c2ccccc2)C1CC (centres unmarked) [Compound 5a, 2-Ethyl-3-methylidene-1-(phenylsulfonyl)-2,3-dihydroquinolin-4(1H)-one] | over 5
